According to article doi:10.1101/2024.05.22.594599:
Read-outs that look alike come from different tables or passages of the source. No constants are given. Whether binding was seen depends on the method and setting. In cells and extracts the contact can be indirect. Some entries that bind do so weakly or less than the wild type. Values belong to the molecule of their own block, whether it stands above or below them.

Sequences of proteins named here, by UniProt entry; tags and fusion partners are left off.
UniProt O96013: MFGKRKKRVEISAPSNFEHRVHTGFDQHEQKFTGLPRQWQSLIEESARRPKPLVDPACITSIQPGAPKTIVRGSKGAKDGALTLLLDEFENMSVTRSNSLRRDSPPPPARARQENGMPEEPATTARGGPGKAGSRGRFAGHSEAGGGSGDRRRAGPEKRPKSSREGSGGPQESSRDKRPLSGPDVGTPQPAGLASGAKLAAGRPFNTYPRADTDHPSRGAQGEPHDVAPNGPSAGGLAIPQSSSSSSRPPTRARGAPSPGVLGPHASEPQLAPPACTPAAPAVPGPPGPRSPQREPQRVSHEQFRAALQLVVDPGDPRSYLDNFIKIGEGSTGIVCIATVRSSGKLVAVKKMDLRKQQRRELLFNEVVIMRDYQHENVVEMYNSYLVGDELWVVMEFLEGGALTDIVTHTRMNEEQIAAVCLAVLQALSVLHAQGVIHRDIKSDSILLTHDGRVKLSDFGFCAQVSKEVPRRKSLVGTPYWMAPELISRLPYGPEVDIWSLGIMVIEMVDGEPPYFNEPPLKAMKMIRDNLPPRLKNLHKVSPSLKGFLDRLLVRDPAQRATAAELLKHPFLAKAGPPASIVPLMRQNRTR
UniProt P60953: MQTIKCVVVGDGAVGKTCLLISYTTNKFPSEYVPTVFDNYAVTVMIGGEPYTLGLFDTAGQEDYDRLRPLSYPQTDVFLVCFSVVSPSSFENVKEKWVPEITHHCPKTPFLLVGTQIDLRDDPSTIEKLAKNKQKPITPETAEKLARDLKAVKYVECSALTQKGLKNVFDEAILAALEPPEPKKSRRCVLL

Columns and labels:
Assay in all cases: co-IP
[1] = molecular target: p21-activated kinase 4 (PAK4) (human (endogenous in SU.86.86)) (UniProt O96013)
[2] = molecular target: T1, Hakai (human (endogenous in SU.86.86 and PANC-1)) (UniProt Q75N03)
T1 sequence: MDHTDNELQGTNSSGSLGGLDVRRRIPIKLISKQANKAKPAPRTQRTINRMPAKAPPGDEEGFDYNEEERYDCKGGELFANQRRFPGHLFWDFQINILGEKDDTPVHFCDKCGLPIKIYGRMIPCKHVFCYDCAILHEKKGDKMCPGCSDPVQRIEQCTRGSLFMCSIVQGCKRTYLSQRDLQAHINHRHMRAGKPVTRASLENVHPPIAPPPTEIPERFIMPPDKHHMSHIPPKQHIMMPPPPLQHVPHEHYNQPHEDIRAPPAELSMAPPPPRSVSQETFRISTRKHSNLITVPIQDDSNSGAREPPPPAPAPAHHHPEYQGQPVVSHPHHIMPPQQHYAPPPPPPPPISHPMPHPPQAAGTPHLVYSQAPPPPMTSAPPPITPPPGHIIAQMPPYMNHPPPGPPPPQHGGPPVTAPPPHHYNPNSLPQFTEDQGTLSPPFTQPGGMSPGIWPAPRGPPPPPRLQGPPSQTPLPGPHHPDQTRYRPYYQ

[3] = molecular target: Cdc42 (human (endogenous in SU.86.86)) (UniProt P60953)
[4] = molecular target: p21-activated kinase 4 (PAK4) (human (endogenous in SU.86.86)) (UniProt O96013); remark: listed apart in the source
[5] = molecular target: Cdc42 (human (endogenous in SU.86.86)) (UniProt P60953); remark: listed apart in the source

binding [1]: binds
Molecule: Cdc42 (from UniProt P60953 1-191)

binding [2]: binds | binding [3]: binds
Molecule: p21-activated kinase 4 (PAK4) (from UniProt O96013 1-591)

binding [4]: binds | binding [5]: binds
B1: p120ctn (protein, UniProt O60716 1-968)
chain: MDDSEVESTASILASVKEQEAQFEKLTRALEEERRHVSAQLERVRVSPQDANPLMANGTLTRRHQNGRFVGDADLERQKFSDLKLNGPQDHSHLLYSTIPRMQEPGQIVETYTEEDPEGAMSVVSVETSDDGTTRRTETTVKKVVKTVTTRTVQPVAMGPDGLPVDASSVSNNYIQTLGRDFRKNGNGGPGPYVGQAGTATLPRNFHYPPDGYSRHYEDGYPGGSDNYGSLSRVTRIEERYRPSMEGYRAPSRQDVYGPQPQVRVGGSSVDLHRFHPEPYGLEDDQRSMGYDDLDYGMMSDYGTARRTGTPSDPRRRLRSYEDMIGEEVPSDQYYWAPLAQHERGSLASLDSLRKGGPPPPNWRQPELPEVIAMLGFRLDAVKSNAAAYLQHLCYRNDKVKTDVRKLKGIPVLVGLLDHPKKEVHLGACGALKNISFGRDQDNKIAIKNCDGVPALVRLLRKARDMDLTEVITGTLWNLSSHDSIKMEIVDHALHALTDEVIIPHSGWEREPNEDCKPRHIEWESVLTNTAGCLRNVSSERSEARRKLRECDGLVDALIFIVQAEIGQKDSDSKLVENCVCLLRNLSYQVHREIPQAERYQEAAPNVANNTGPHAASCFGAKKGKDEWFSRGKKPIEDPANDTVDFPKRTSPARGYELLFQPEVVRIYISLLKESKTPAILEASAGAIQNLCAGRWTYGRYIRSALRQEKALSAIADLLTNEHERVVKAASGALRNLAVDARNKELIGKHAIPNLVKNLPGGQQNSSWNFSEDTVISILNTINEVIAENLEAAKKLRETQGIEKLVLINKSGNRSEKEVRAAALVLQTIWGYKELRKPLEKEGWKKSDFQVNLNNASRSQSSHSYDDSTLPLIDRNQKSDKKPDREEIQMSNMGSNTKSLDNNYSTPNERGDHNRTLDRSGDLGDMEPLKGTTPLMQDEGQESLEEELDVLVLDDEGGQVSYPSMQKI
